These are yes or no findings as the source states them, for the method shown. Binding seen in cells or lysates may run through a third protein. These calls come from enrichment with a bait or labelling near it, and not all partners need be listed.

Chains of the proteins cited; added tags and fusions are not shown.
UniProt O14497: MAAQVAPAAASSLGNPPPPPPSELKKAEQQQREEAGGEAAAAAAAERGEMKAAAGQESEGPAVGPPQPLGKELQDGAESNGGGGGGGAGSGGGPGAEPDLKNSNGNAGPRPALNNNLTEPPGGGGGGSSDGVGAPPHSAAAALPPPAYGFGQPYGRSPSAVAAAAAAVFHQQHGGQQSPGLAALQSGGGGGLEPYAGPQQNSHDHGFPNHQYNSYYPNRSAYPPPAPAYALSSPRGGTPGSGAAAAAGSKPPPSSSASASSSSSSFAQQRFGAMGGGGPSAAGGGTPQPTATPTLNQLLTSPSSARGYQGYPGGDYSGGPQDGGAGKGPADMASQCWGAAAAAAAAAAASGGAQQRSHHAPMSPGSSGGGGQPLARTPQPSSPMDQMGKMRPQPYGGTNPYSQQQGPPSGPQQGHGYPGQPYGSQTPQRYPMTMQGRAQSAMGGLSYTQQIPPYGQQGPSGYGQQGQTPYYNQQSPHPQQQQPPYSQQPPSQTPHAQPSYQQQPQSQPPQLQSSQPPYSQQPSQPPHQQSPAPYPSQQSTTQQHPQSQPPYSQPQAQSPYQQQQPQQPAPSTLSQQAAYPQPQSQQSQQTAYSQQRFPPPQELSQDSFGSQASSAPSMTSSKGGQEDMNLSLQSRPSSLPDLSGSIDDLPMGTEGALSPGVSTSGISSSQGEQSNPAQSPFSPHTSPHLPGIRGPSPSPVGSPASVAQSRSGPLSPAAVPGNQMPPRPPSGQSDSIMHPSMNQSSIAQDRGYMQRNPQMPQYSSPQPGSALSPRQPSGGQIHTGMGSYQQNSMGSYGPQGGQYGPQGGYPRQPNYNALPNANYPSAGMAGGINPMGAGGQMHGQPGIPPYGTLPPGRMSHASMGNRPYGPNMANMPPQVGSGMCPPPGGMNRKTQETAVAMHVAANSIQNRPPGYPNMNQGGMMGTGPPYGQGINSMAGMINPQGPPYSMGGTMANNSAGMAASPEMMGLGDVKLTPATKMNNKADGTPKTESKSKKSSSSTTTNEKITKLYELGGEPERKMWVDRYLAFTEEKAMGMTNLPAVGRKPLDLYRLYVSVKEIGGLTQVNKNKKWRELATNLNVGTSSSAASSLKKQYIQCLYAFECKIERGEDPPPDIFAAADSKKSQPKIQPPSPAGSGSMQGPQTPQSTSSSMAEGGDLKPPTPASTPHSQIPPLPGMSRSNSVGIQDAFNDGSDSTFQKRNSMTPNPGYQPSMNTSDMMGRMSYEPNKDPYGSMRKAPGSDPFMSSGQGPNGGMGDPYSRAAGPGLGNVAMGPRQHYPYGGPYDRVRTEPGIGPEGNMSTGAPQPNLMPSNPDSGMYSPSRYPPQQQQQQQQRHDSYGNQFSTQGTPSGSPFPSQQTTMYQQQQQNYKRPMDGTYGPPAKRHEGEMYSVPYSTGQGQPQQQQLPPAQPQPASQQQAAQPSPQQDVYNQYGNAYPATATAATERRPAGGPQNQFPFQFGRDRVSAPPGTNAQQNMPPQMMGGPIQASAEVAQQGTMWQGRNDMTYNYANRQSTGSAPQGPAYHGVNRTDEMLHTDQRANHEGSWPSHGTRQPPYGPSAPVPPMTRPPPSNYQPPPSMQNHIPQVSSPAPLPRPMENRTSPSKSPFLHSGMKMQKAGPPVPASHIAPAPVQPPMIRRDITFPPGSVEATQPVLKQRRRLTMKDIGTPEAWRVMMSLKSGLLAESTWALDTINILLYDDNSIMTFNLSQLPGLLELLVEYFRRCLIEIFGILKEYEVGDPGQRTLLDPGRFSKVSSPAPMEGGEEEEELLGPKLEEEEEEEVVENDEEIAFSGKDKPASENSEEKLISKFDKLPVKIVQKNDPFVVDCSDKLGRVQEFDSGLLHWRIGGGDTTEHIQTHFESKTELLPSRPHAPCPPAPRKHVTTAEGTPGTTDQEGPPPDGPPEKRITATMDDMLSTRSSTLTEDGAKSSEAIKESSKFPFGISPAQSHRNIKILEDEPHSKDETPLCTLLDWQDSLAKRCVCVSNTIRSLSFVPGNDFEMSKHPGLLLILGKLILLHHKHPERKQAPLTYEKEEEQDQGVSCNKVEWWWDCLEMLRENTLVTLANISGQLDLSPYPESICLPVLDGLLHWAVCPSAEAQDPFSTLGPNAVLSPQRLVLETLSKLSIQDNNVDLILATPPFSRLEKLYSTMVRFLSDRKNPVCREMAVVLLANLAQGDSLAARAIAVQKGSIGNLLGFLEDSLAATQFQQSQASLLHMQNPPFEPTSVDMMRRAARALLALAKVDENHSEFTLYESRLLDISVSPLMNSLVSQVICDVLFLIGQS
UniProt P51532: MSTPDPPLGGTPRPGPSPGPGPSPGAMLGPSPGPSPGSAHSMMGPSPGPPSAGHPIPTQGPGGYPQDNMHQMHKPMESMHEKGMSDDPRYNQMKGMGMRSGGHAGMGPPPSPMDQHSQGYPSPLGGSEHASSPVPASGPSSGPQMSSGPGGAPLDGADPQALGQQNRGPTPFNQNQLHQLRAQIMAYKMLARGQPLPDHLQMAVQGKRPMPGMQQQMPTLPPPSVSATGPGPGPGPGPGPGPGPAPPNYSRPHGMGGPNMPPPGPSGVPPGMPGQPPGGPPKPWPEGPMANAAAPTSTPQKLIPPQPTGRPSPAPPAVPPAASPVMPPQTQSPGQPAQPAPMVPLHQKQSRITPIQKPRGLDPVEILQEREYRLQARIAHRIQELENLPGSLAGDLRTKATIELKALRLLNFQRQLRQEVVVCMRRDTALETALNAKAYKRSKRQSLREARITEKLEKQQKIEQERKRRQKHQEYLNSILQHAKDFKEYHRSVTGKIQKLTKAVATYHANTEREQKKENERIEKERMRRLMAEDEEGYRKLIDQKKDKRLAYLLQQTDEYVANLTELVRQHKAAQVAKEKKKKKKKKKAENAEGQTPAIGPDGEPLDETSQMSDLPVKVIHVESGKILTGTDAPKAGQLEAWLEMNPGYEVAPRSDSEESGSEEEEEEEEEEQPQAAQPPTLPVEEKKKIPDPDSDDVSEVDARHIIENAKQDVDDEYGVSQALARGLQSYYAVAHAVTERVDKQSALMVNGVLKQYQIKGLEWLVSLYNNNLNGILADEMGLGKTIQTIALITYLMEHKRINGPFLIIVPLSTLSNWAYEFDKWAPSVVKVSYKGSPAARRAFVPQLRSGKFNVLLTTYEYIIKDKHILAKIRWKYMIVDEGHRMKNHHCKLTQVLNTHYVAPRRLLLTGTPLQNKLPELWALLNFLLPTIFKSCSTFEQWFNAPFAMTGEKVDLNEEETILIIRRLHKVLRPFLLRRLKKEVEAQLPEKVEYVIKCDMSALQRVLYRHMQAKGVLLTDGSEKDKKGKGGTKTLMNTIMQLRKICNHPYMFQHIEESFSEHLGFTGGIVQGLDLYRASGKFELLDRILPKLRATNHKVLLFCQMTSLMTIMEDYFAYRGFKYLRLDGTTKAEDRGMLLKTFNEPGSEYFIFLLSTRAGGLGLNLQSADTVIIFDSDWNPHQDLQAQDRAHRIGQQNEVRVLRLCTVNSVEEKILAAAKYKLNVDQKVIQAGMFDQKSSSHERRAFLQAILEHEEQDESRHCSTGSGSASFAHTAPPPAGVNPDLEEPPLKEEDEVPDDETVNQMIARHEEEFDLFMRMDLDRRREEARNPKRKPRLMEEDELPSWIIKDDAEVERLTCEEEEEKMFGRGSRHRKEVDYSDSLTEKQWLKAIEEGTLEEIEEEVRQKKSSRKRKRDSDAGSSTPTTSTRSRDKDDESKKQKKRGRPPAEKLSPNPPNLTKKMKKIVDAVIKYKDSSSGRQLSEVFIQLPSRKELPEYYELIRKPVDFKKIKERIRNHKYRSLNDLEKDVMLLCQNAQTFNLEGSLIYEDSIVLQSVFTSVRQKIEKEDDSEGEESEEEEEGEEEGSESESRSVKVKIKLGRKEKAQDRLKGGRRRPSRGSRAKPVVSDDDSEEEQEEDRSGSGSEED
UniProt O96019: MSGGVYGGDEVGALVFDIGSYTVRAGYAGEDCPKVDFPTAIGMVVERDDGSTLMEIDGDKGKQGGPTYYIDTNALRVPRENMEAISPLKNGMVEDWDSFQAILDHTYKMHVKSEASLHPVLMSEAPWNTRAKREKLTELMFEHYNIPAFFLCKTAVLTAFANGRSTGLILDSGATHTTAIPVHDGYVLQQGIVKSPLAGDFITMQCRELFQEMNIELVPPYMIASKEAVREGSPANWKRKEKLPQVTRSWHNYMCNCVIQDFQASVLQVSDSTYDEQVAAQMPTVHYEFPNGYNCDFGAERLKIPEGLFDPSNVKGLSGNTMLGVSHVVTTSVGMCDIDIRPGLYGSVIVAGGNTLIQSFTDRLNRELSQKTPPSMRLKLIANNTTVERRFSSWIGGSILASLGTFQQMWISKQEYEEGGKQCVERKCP
UniProt Q52LJ0: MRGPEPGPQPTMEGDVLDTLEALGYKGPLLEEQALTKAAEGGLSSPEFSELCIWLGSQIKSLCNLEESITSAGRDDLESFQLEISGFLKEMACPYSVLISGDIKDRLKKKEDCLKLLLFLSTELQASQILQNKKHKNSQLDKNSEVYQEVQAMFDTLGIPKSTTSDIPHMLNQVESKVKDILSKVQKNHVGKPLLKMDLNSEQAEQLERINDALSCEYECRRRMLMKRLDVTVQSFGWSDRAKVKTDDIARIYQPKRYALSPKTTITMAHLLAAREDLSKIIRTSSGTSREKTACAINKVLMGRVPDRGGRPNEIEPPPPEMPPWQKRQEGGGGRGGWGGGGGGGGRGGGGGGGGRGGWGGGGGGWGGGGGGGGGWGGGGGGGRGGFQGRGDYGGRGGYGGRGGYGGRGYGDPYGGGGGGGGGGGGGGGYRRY

The target of this assay is AT-interacting domain-rich protein 1A (ARID1A), endogenous (human (endogenous in HEK293 and HCT116)) (UniProt O14497). Kind of assay: affinity purification with mass spectrometry; endogenous ARID1A immunoprecipitated with anti-ARID1A (C-7) on protein A/G magnetic beads from HEK293 nuclear extract (300 mM NaCl, 0.5% NP-40, DNase, RNase), 2 h 4°C; eluted with 1.2 M NaCl; silver-stained bands analysed by nanoflow HPLC-MS/MS.
In the case of SMARCA4 (from UniProt P51532 1-1647), the binding entry is listed as “binds”.

Turning to “actin-like 6A (from UniProt O96019 1-429)”, the binding entry is reported as “binds”.

FAM98B (from UniProt Q52LJ0 1-433): the binding result is recorded as “binds”.

The values above are taken from PMC11904782.
